# In the supplement of paper PMC6445147:
# This is a noisy data set.
# B1: human tRNA-Pro; a variant is named by its letters at N, in order (parent)
# chain: GGCTCGTTGGTCTAGNGGTATGATTCTCGCTTAGGGTGCGAGAGGTCCCGGGTTCNNATCCCGGACGAGCCC
# Variants of: B1
# Assay: tRNA 5' processing efficiency (processed reads / all reads, maximum-likelihood estimate) (fraction); higher = more efficient 5' processing
# Details: HEK293T; construct: CMV Pol-II promoter ((+)CMV library, decapped)
row,Variant,tRNA 5' processing efficiency
1,CAA G9C T53G C55A,0.08
2,GAA T8A T19C G29T,0.33
3,GAA A20C C55A,0.2
4,GAA T8A T19G T53C T54A T59G,0.25
5,CAA G9T G17A T19A,0.25
6,GAA A20G T54G T59A,0.33
7,GAA G18A T54C C55G T59A,0.33
8,GAA G9A A41T,0.33
9,GAA T8C T19A,0.13
10,GAA G9C G18T C55A,0.4
11,TAA G9C A20C T59C,0.69
12,GAA G15C A58T T59A,0.25
13,GAA G9A G15C G17C T53C,0.33
14,CAA T8A A14T T53C A58T T59C,0.5
15,CAA G9A T53A A58G,0.2
16,GAA G9A G17C A20T A23T T53G T59A,0.25
17,GAA G9A G15A G18A A20C T59C,0.2
18,GAA G9C G15T T54C A58G,0.2
19,GAA T8G A14T T19C C55A T59C,0.33
20,GAA G9C G15C G18A T19A T53C T54C,0.25
21,AAA G17T T54C,0.25
22,GAA T8A G9T A58T,0.17
23,GAA T8C C55G,0.2
24,CAA T8A G9C G15C,0.2

row,Variant,tRNA 5' processing efficiency
1,CAA G9C G15A G17C T53C,0.5
2,GAA G9A G17A,0.2
3,TAA G18A T53A,0.17
4,GAA T8C T19C C55T,0.6
5,GAA G17C C55A,0.34
6,GAA T8C G15T A20G T54G A58C T59G,0.11
7,GAA T8G A14C T59C,0.5
8,GAA G18A T53C,0.2
9,TAA G15T G17A,0.33
10,GAA G17T T53C,0.22
11,GAA G15T T19G C55T A58G T59G,0.17
12,GAA T8C G18T T19C A20T T53G A58T T59C,0.33
13,AAA G15T G17T G18T C55T,0.2
14,CAA G9A G15T A58G T59A,0.33
15,CAA G9T,0.1
16,TAA T8G C55G,0.1
17,GAA T8G G9A T19G,0.2
18,GAA G18T T53C,0.17
19,GAA G17A T54A A58T,0.33
20,GAA G18T A20C T54A A58T,0.4
21,GAA T8C A14G C55T,0.25
22,GAA G17A T19A C55T,0.25
23,AAA G15T G18T T19A A20C T53C,0.33
24,GAA T8C G9A T19C C55T,0.17

row,Variant,tRNA 5' processing efficiency
1,GAA G9T T19A A43G T53C,0.2
2,GAA G15C G17T C55A T59A,0.2
3,AAA G9T T53A,0.7
4,GAA G15T G17T T54A A58C T59C,0.17
5,GAA G17C T19G,0.33
6,AAA G9A C55G,0.17
7,GAA G18T C55G T59C,0.2
8,GAA G9C A14G G18T A20G C55G A58G,0.25
9,AAA T8G A14G C55T,0.14
10,GAA G15T C55T A58T,0.25
11,GAA G15T G18C T19C,0.25
12,GAA T8C A20C A58C,0.33
13,GAA T8A A14G A20C C55T,0.5
14,GAA G9C G15A G18T,0.4
15,GAA A58T G63A,0.33
16,GAA G18T C55A,0.33
17,GAA G9C G18A A20T C55G,0.25
18,GAA G9T T19C A20C T54G,0.2
19,GAA G18T A20G T54A,0.25
20,GAA T8A A14T C55G T59A,0.33
21,GAA T8A G9T G17T G18T,0.5
22,GAA T8C G9T T59C,0.4
23,GAA G18T A20C A58C,0.11
24,GAA T8C G9T G17C T54C C55G,0.4

row,Variant,tRNA 5' processing efficiency
1,GAA T8C G18A T53C T54G,0.2
2,GAA G15A G17A A58C T59C,0.33
3,GAA G17A A20T A58T,0.25
4,TAA T8C T19G A20T T54G,0.14
5,GAA G15A T53C C55T,0.25
6,GAA T8A A20G T54C,0.33
7,GAA G18A T53C A58G,0.25
8,GAA G15T T19A T54C,0.25
9,AAA T8A A20G T54C,0.25
10,GAA G18A T19G T54C,0.2
11,GAA T8C A14G A20G T54C C55G T59A,0.33
12,GAA G17A T19A A20C,0.08
13,GAA G15C G18A A20T,0.25
14,GAA G9T T54A C55G,0.25
15,GAA G18A A20C T54G C55T A58T,0.33
16,GAA T8A G9C G18C A20T T53G,0.25
17,GAA T8G A20T T54C A58G,0.17
18,CAA G15T G17A T53A,0.17
19,GAA G9T T19G C55T,0.18
20,GAA G9T A14G G15T T19G,0.25
21,GAA G9T G18T T53G,0.17
22,GAA T8A A14G T53A,0.25
23,GAA G17C G18T T19A T53G T54A,0.2
24,AAA G51A,0.25

# Rewritten bar-delimited: part of the list above
row | Variant | tRNA 5' processing efficiency
18 | GAA G18T T53C | 0.17
19 | GAA G17A T54A A58T | 0.33
20 | GAA G18T A20C T54A A58T | 0.4
21 | GAA T8C A14G C55T | 0.25
24 | GAA T8C G9A T19C C55T | 0.17
1 | GAA G9T T19A A43G T53C | 0.2
2 | GAA G15C G17T C55A T59A | 0.2
3 | AAA G9T T53A | 0.7
5 | GAA G17C T19G | 0.33
6 | AAA G9A C55G | 0.17
7 | GAA G18T C55G T59C | 0.2
8 | GAA G9C A14G G18T A20G C55G A58G | 0.25
9 | AAA T8G A14G C55T | 0.14
10 | GAA G15T C55T A58T | 0.25
11 | GAA G15T G18C T19C | 0.25
12 | GAA T8C A20C A58C | 0.33
13 | GAA T8A A14G A20C C55T | 0.5
14 | GAA G9C G15A G18T | 0.4
15 | GAA A58T G63A | 0.33
16 | GAA G18T C55A | 0.33
17 | GAA G9C G18A A20T C55G | 0.25
18 | GAA G9T T19C A20C T54G | 0.2
19 | GAA G18T A20G T54A | 0.25
20 | GAA T8A A14T C55G T59A | 0.33
21 | GAA T8A G9T G17T G18T | 0.5
22 | GAA T8C G9T T59C | 0.4
23 | GAA G18T A20C A58C | 0.11
24 | GAA T8C G9T G17C T54C C55G | 0.4
1 | GAA T8C G18A T53C T54G | 0.2
2 | GAA G15A G17A A58C T59C | 0.33
3 | GAA G17A A20T A58T | 0.25
4 | TAA T8C T19G A20T T54G | 0.14
5 | GAA G15A T53C C55T | 0.25
6 | GAA T8A A20G T54C | 0.33
7 | GAA G18A T53C A58G | 0.25
8 | GAA G15T T19A T54C | 0.25
9 | AAA T8A A20G T54C | 0.25
10 | GAA G18A T19G T54C | 0.2
11 | GAA T8C A14G A20G T54C C55G T59A | 0.33
12 | GAA G17A T19A A20C | 0.08
13 | GAA G15C G18A A20T | 0.25
14 | GAA G9T T54A C55G | 0.25
15 | GAA G18A A20C T54G C55T A58T | 0.33
16 | GAA T8A G9C G18C A20T T53G | 0.25
17 | GAA T8G A20T T54C A58G | 0.17
18 | CAA G15T G17A T53A | 0.17
19 | GAA G9T T19G C55T | 0.18
20 | GAA G9T A14G G15T T19G | 0.25
21 | GAA G9T G18T T53G | 0.17
22 | GAA T8A A14G T53A | 0.25
23 | GAA G17C G18T T19A T53G T54A | 0.2
24 | AAA G51A | 0.25

# More records.

row,Variant,tRNA 5' processing efficiency
1,GAA G9A A14G T19A A20T C55A A58G,0.25
2,GAA G9C A14T G15A T54A C55T,0.25
3,GAA T8A A14G G17A G18C T53G T54G,0.33
4,GAA G18C A20G,0.38
5,GAA G9C A58T,0.25
6,GAA A20G C55A,0.25
7,GAA A20G C55T,0.25
8,GAA G18T A20T T59G,0.57
9,GAA G9T A20T C55A,0.29
10,GAA C55G T59C,0.25
11,GAA G17C T53A C55T T59C,0.5
12,CAA T8A G9T G15A G17C A58T,0.25
13,GAA T8A G15A T53G T54A,0.25
14,GAA G9A G17T A20T,0.1
15,GAA G9A G17T A20C,0.08
16,AAA G15A G18T T53A T59G,0.4
17,AAA T8G A14G G17A T19A A20G T53A A58C,0.25
18,GAA T8G A20T,0.29
19,TAA G9A T19A A20T,0.33
20,GAA A20G T54G,0.25
21,GAA G15C G17T T19A,0.2
22,TAA G9A A20T,0.25
23,GAA G15C G17C T54C C55T A58C,0.13
24,GAA T8A A20T,0.2

row,Variant,tRNA 5' processing efficiency
1,GAA G9A G15T C55T,0.33
2,GAA G17A T19A,0.25
3,AAA T8G G9A T54G T59G,0.25
4,GAA G17A G18A T53A,0.33
5,GAA G9A G15T G17C,0.15
6,GAA G18C T19C A20T A58C,0.11
7,AAA A20G T54G T59A,0.17
8,GAA T8C A14T G15T G17T G18A T53A T59C,0.17
9,GAA G9C G15T T19A T54A,0.25
10,GAA T8C C55G A58C,0.2
11,CAA G15C G18T,0.33
12,GAA G15T T54A C55G,0.2
13,AAA A20C T59A,0.33
14,GAA G17A G18A C55A,0.25
15,GAA G17A G18T A58T,0.78
16,GAA G9T A14G C55A,0.2
17,GAA T8C G9C T19C,0.33
18,GAA G9T T19C A20T C55G A58T,0.25
19,CAA T8C G15A G17T G18A A20G T54G A58C T59C,0.4
20,GAA T8C A14C T59A,0.4
21,GAA T8A T19A A58C,0.25
22,GAA G18C T53A T59C,0.25
23,GAA G15A T54A A58T,0.2
24,AAA A20C G50T T53G A58C,0.25

row,Variant,tRNA 5' processing efficiency
1,GAA T8C G15T G18A C55T,0.5
2,CAA G15C,0.2
3,GAA G18C T53A A58T,0.33
4,TAA T8A A14T T19A C55A,0.4
5,GAA T8G A14T,0.4
6,GAA T8A C55G,0.2
7,GAA T8G G9A A14G G18A,0.17
8,GAA A20T T54C,0.33
9,AAA G15C T54C C55G T59A,0.33
10,GAA G17T A20G C55T,0.25
11,GAA A20G T53C C55G T59A,0.14
12,GAA G15A T53A C55A,0.33
13,GAA G15A T19G C55G,0.43
14,AAA A20T A58C,0.33
15,AAA G15T,0.16
16,AAA G15C,0.33
17,GAA T8A A14T T19A A20T C55A A58G T59C,0.5
18,GAA C55A A58G,0.25
19,TAA G15A G18C C55A,0.25
20,GAA T8C G15A A20T,0.11
21,GAA G17A A58G,0.33
22,GAA G15C A20T C55G A58T,0.2
23,GAA G9C G15T T53G C55T,0.2
